Eleven molecules from US20070274928A1, “Novel Cyclic Oxygenated Compounds Having Cooling, Fragrance, and Flavor Properties, and Uses Thereof” (priority 2003, published 2007) can be followed below.

This data set is described as follows: Odor and taste evaluation. Further details: species or system human. The following applies: pure / purified compound.
In the case of sodium ketocampholenate monohydrate, the odor / scent result was “virtually odorless”.
The same measure for `CC1CC(=O)C(CC(C)(C)O)C1(C)C` (centres unmarked) [compound (16)]: “practically odorless”.
For `CC1=C[C@]2(C)OC(=O)CC2C1(C)C` (some centres unmarked) [compound (6)], the odor / scent result is “very agreeable and pleasant woody, mahogany-like, tobacco like, somewhat fruity odor”.
The same measure for `CC1=CC2(C)OC(C)(C)CC2C1(C)C` (centres unmarked) [compound (11)]: “characteristic woody-ambery agreeable odor”.
The value for `CC1CC2(C)OC(=O)CC2C1(C)C` (centres unmarked) [(129)] was “pleasant fruity-woody-coconut odor of moderate to weak strength”; that for `CC1=CC(C)(O)C(CC(C)(C)O)C1(C)C` (centres unmarked) [compound (9)] was “practically odorless and tasteless”; that for `CC(C)=CC1C(=O)C=C(C)C1(C)C` (centres unmarked) [(10)] was “very agreeable berry-like, raspberry-like odor and taste”.
Take `CC1=CC2(O)OC(C)(C)CC2C1(C)C` (centres unmarked) [compound (7)]: the odor / scent result is on record as “very weak menthol-like scent”.
The same measure for `CC1(C)CC2C(=O)CC(C)(O1)C2(C)C` (centres unmarked) [(147)]: “characteristic woody-camphoraceous odor”; for `CC1CC2(O)OC(C)(C)CC2C1(C)C` (centres unmarked) [compound (15)]: “potent menthol-like, woody odor”.
The same measure for `CC1=CC(=O)C(CC(C)(C)O)C1(C)C` (centres unmarked) [compound (8)]: “practically odorless”.
